For some assays here: At least one result comes from cells or an extract, where the contact may be indirect. A negative result means that nothing was seen under these conditions. Construct, isoform or probe ends are uncertain for at least one entry.
What was measured:
[1] = test system: thrombin in human plasma / plasma clot (Homo sapiens); assay: binding assay; settings: 2'-F pyrimidines, 2'-OH purines, 3' idT, 5' C6 amine or thiol linker, protein in an extract, label: 5' Alexa Fluor 680
[2] = test system: thrombin at in vivo thrombus (Mus musculus); assay: binding assay; settings: 2'-F pyrimidines, 2'-OH purines, 3' idT, 5' C6 amine or thiol linker, FeCl3 jugular vein thrombus NIR imaging, label: 5' Alexa Fluor 680, variant of Tog25t

GGAGCAGCUAGACGGUAUAAGGAUA [Tog25t-Control3-AF680]
binding result ([1]; human plasma clot fluorescence, Tog25t signal significantly enhanced over this control): no binding

GGGAACAAAGCUGAAGUACUUACCC [Tog25t-AF680]
binding result ([2]; reversed by AO4): binds
binding result ([1]; human plasma clot fluorescence imaging, 37 C, reversed by antidote AO4, variant of Tog25t): binds

GGGAACAAAGCUGAAGUACUUAGGG [Tog25t-Control2-AF680]
binding result ([2]; no significant localization): no binding
binding result ([1]; human plasma clot fluorescence, described as non-binding point mutant control, variant of Tog25t): no binding

— patent publication US20180117182
